Assay results from paper PMC10580381 (ACS Pharmacology & Translational Science, 2023).

Key:
H1650 cells = conditions: gefitinib–SAHA combination, equipotent concentrations, H1650 (resistant), 72 h; CI < 1 synergistic
HCC827 cells = test: SRB cell proliferation assay, HCC827; conditions: gefitinib–SAHA combination, equipotent concentrations, HCC827 (sensitive), 72 h; CI < 1 synergistic
A549 cells = test: SRB cell proliferation assay, A549; conditions: gefitinib–SAHA combination, equipotent concentrations, A549 (resistant), 72 h; CI < 1 synergistic
H820 cells = conditions: gefitinib–SAHA combination, equipotent concentrations, H820 (resistant), 72 h; CI < 1 synergistic
[1] = system: total HDAC activity from the H1975 nuclear extract; conditions: 10 μM (highest concentration tested)
H1975 cells = conditions: gefitinib–SAHA combination, equipotent concentrations, H1975 (resistant), 72 h; CI < 1 synergistic

O=C(CCCCCCC(=O)Nc1ccccc1)NO [SAHA, Vorinostat]
combination index (CI) (H1650 cells): 0.64 ± 0.09 | combination index (CI) (HCC827 cells): 0.88 ± 0.10 | combination index (CI) (A549 cells): 0.58 ± 0.11 | combination index (CI) (H820 cells): 0.72 ± 0.06 | inhibition of total HDAC activity [1]: ~90% | combination index (CI) (H1975 cells): 0.36 ± 0.07
